Test results taken from PubChem BioAssay AID493014 (National Center for Advancing Translational Sciences (NCATS), 2011).
The other results are listed elsewhere or left out. The main result of the screen is listed elsewhere. These columns were measured beside it and carry no call. Compounds called inactive in the main read-out are mostly missing here. Potencies come from curve fits of mixed quality, noted in brackets.

Test: qHTS Assay to Find Inhibitors of Chronic Active B-Cell Receptor Signaling
Details: ABC-DLBCL IkBa-CBG/CBR reporter, luminescence ratio (green luciferase fused to IkBa over red control in TMD8 lymphoma cells), 4 h
Procedure, shortened: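 Compounds up to 46 uM were incubated four hours with TMD8 cells whose green CBG68 luciferase is fused to IkappaBalpha; red CBR luminescence normalised the signal, and concentration-effect curves were fitted to fusion, red and ratio data.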

[1] = measured here: CBR red luminescence, cell number
[2] = measured here: IkBa-CBG green luminescence

Compound	AC50 [1]	AC50 [2]
COc1ccc(CCN2CCC(Nc3nc4ccccc4n3Cc3ccc(F)cc3)CC2)cc1	29.1 µM [falling, partial curve, poor fit]	18.4 µM [falling, single point]
Cc1ccc2c(CC(=O)N(C)c3c(N)n(Cc4ccccc4)c(=O)[nH]c3=O)coc2c1	23.1 µM [falling, single point]	
O=C(COc1ccccc1)NC(=S)Nc1cccc([N+](=O)[O-])c1	7.31 µM [falling, partial curve]	
CC1=Nc2cc(C(=O)NCC3CCCO3)ccc2Sc2ccc(Br)cc21 (stereo not drawn)	35.5 µM [falling, single point]	
O=C(NCCNS(=O)(=O)c1ccccc1Cl)c1cc(OCC(F)(F)F)ccc1OCC(F)(F)F	7.08 µM [rising, full curve]	
CC(=O)Nc1cc(OC(C)=O)c2nonc2c1OC(C)=O	5.62 µM [falling, full curve, poor fit]	
CNC(=O)CC1C(=O)N(C)C(=S)N1NC(=O)c1ccc(Cl)cc1 (stereo not drawn)	6.51 µM [rising, partial curve, poor fit]	
O=C(COc1ccccc1Cl)Nc1ccc(NC(=O)c2ccco2)cc1	14.1 µM [rising, single point]	
COC(=O)COc1ccc(NC(=O)Cn2nc(-c3ccccc3)c3ccccc3c2=O)cc1	3.16 µM [falling, single point]	
CCOC(=O)C(C)Oc1cccc2c(=O)n(CC(=O)NCc3ccccc3)ccc12 (stereo not drawn)	6.31 µM [rising, partial curve, poor fit]	2.82 µM [falling, full curve]
O=C(N/N=C/c1ccco1)Nc1ccccc1	9.2 µM [falling, partial curve]	
Cc1cc2c(N=O)c(NO)ccc2[nH]1	0.146 µM [falling, full curve, poor fit]	
CCOc1ccc(Nc2oc(-c3ccc(Cl)cc3)nc2C#N)cc1	14.1 µM [falling, single point]	
Cc1noc(C)c1-c1csc(N2CCC(C(N)=O)CC2)n1	10.3 µM [rising, partial curve, poor fit]	
Cc1nc2cc(NC(=O)CCS(=O)(=O)c3ccccc3)ccc2s1	0.58 µM [rising, full curve]	
CC(=O)c1cnc2nc(SCc3ccccc3)nn2c1C	11.2 µM [rising, partial curve]	
CCSc1nc2c(cnn2-c2ccc(C)c(C)c2)c(=O)[nH]1	2.31 µM [rising, partial curve, poor fit]	
CSc1nc(N(C)NC(=O)c2cccc(C)c2)c2ccccc2n1	1.78 µM [rising, full curve]	0.794 µM [falling, full curve]
CN1CCN(C(=S)NC(=O)/C=C/c2ccccc2Cl)CC1	6.31 µM [rising, single point]	
Cc1cc(=O)oc(C)c1C(=O)NC1CC(C)(C)NC(C)(C)C1	1.03 µM [rising, full curve, poor fit]	
N/C(=N\OC(=O)COc1ccc(Br)cc1)c1cccnc1	0.731 µM [rising, full curve, poor fit]	

Compound	AC50 [1]	AC50 [2]
CCOC(=O)Nc1ccc2ncn(C)c(=O)c2c1	29.1 µM [falling, single point]	
COc1ccc(NC(=O)CSc2nnc(-c3ccccc3Cl)n2Cc2ccco2)c(OC)c1	5.62 µM [falling, full curve, poor fit]	
CC1=CC(C)(C)N(S(=O)(=O)c2ccc(F)cc2)c2ccccc21		29.1 µM [falling, single point]
CC(Sc1nc(=O)cc(N)n1CCc1ccccc1)C(=O)Nc1ccc(Cl)cc1 (stereo not drawn)	11.2 µM [falling, partial curve, poor fit]	12.6 µM [rising, partial curve, poor fit]
O=C(O)CC(NC(=S)NCc1ccccc1)C(=O)O (stereo not drawn)	2.31 µM [falling, full curve, poor fit]	
Cc1ccc(NC(=O)CSCC(=O)Nc2ncc3c(n2)CC(c2ccco2)CC3=O)cc1 (stereo not drawn)	0.731 µM [falling, partial curve, poor fit]	
CC1CC(C)CN(C(=O)Nc2ccc(Br)cc2)C1 (stereo not drawn)	7.94 µM [rising, partial curve, poor fit]	
CCc1noc(C)c1C(=O)Nc1nc(-c2cccs2)cs1	0.326 µM [rising, full curve, poor fit]	
Cc1ccc(N=Nc2ccc(C)cc2NC(=O)Nc2ccccc2F)cc1	25.1 µM [falling, single point]	
CC(=O)c1cccc(OCc2cc(C(=O)N3CCC(N4CCCCC4)CC3)no2)c1	10 µM [rising, partial curve]	
Cc1noc(C)c1COc1cccc(C(=O)Nc2ccc(Br)cc2F)c1		8.2 µM [falling, single point]
O=C(Nc1ccncc1)Nc1cccc(C(F)(F)F)c1	3.16 µM [rising, full curve, poor fit]	
Nc1nc(Nc2ccccc2)nc(N2CCCC2)c1[N+](=O)[O-]	20 µM [rising, single point]	
COc1cccc(C(=O)NC2=NCCS2)c1OC	0.231 µM [rising, full curve, poor fit]	
COc1cccc(Cn2cc(/C=N/NC(=O)c3cc(O)cc(O)c3)c3ccccc32)c1	12.6 µM [falling, partial curve]	
CCCCC(=O)OCC(=O)c1[nH]c(C)c(C(=O)OCC)c1C	0.13 µM [falling, full curve, poor fit]	
Cc1ccc(NS(=O)(=O)c2ccc(CCC(=O)N3CCOCC3)cc2)cc1	29.1 µM [rising, single point]	
CN(C)C(=O)N1CCC(C(=O)N2CCCC(C(=O)c3cccc4ccccc34)C2)CC1 (stereo not drawn)	3.55 µM [rising, single point]	
O=C1CC[C@@H](CN(Cc2ccccc2)Cc2cn[nH]c2-c2cc3ccccc3o2)N1	12.6 µM [falling, partial curve]	22.4 µM [rising, single point]
CCCNC(=O)c1ccc(N2CCC3(CC2)CC(c2cccc(Br)c2)=NO3)c(NC(=O)c2ccc(Br)cc2)c1	0.651 µM [rising, partial curve, poor fit]	
O=C(Nc1cc(Cl)cc(Cl)c1)c1ccc(F)c(S(=O)(=O)N2CCc3ccccc32)c1	5.62 µM [falling, single point]	

A second format for three compounds above.

| Compound | AC50 [1] | AC50 [2] |
| --- | --- | --- |
| O=C(COc1ccccc1)NC(=S)Nc1cccc([N+](=O)[O-])c1 | 7.31 µM [falling, partial curve] |  |
| CC1=Nc2cc(C(=O)NCC3CCCO3)ccc2Sc2ccc(Br)cc21 (stereo not drawn) | 35.5 µM [falling, single point] |  |
| O=C(NCCNS(=O)(=O)c1ccccc1Cl)c1cc(OCC(F)(F)F)ccc1OCC(F)(F)F | 7.08 µM [rising, full curve] |  |

The listing continues:

Compound	AC50 [1]	AC50 [2]
CC(CC(=O)N1CCc2ccccc21)c1ccccc1 (stereo not drawn)	6.51 µM [rising, single point]	
O=C(Cc1ccccc1)N(Cc1cccnc1)c1nc2c(F)cc(F)cc2s1		11.2 µM [rising, partial curve, poor fit]
CN(/N=C/c1cc([N+](=O)[O-])ccc1O)c1ccccc1	2.06 µM [rising, partial curve]	
COc1ccc(CNC(=O)/C(C#N)=C/c2cccc(OC)c2OC)cc1		7.08 µM [falling, full curve]
O=C(Cn1c2ccccc2c2nc3n(c(=O)c21)CCS3)Nc1ccccc1	1.78 µM [rising, full curve, poor fit]	
O=C(Nc1ccc(S(=O)(=O)N2CCc3ccccc32)cc1)c1ccc2c(c1)OCO2	14.6 µM [falling, partial curve, poor fit]	25.9 µM [rising, partial curve, poor fit]
COc1ccc(Cl)cc1NC(=O)CC1CCCC1	14.1 µM [rising, partial curve, poor fit]	
Cc1ccc(OCCSc2nc(NC(C)C)nc(NC(C)C)n2)cc1	2.06 µM [falling, partial curve, poor fit]	
C=CCn1c(NC(=O)c2ccc(C)cc2)c(C#N)sc1=N	3.55 µM [rising, partial curve, poor fit]	
CCOC(=O)[C@H]1[C@H]2COc3ccc(C)cc3[C@@H]2N2C(=O)c3cc(Cl)ccc3NC(=O)[C@@]12C	29.1 µM [falling, single point]	
CC(=O)c1ccc(N2CCN(c3ccc(NC(=O)c4ccc(F)cc4)cc3C(=O)O)CC2)cc1	35.5 µM [falling, single point]	
COc1ccc(CC(=O)NCCC2=CCCCC2)cc1	5.01 µM [rising, partial curve, poor fit]	
Cc1cc(C)n(CCOc2ccc(Br)cc2)n1	17.8 µM [rising, single point]	
CCC(C)N1C(=O)S/C(=C/c2ccc(Sc3nc4ccccc4[nH]3)o2)C1=O (stereo not drawn)	22.4 µM [falling, single point]	
CC1(C)Cc2c(cnn2-c2ccccc2)C(=O)/C1=N\NC(=O)c1ccccc1	1.64 µM [rising, partial curve, poor fit]	
COc1cccc(CNCC(O)COc2ccc(C(=O)c3ccccc3)cc2)c1 (stereo not drawn)	35.5 µM [falling, single point]	
Cc1ccc(/C=N/c2sc3c(c2C#N)CCCCC3)o1	35.5 µM [falling, single point]	
O=C1c2ccccc2C(O)N1Cc1ccccc1Cl (stereo not drawn)	29.1 µM [falling, single point]	
COc1ccccc1CN1CCNC(=O)C1CC(=O)NCCCn1cccn1 (stereo not drawn)	28.2 µM [rising, partial curve, poor fit]	
COc1ccc(OC)c(S(=O)(=O)NCC(=O)NC2CCCc3ccccc32)c1 (stereo not drawn)	2.91 µM [rising, partial curve, poor fit]	
